# Results published in publication PMC6175206.
# These are yes or no findings as the source states them, for the method shown. In cells and extracts the contact can be indirect. A result given as binding can be weak or reduced; the word gives no strength.
# B1: photosystem II assembly factor Ycf39 (Slr0399) (protein, UniProt P74429 1-326)
# chain: MRVLVVGGTGTLGRQIVRQAIDQGHTVVCLVRSLRKAAFLKEWGATIVGGNICKPETLSPALENIDAVIDASTARATDSLTIRQVDWEGKLNLIRAVQKAGIKKFVFFSILRAAEYPKVPLMDIKNCTEKFLAQTNLDYTILQLAGFMQGLIGQYAIPILDNQSVWQTGENTPIAYMNTQDVAKFAVRAVELDSVARKTYPVVGSRAWGATEIIQLCERMSGNNARISQVPMAVLRFMRSFTRFFQWTYNASDRLAFSEVLASGKALTADMAPVYEQFGLDPKETTTLESYLQEYFGRIIKKLKELDYEVNPTQTEGKKKKNNFFF
# B2: membrane insertase YidC (Slr1471) (protein, UniProt P74155 1-384)
# chain: MDFGIGFISTNIMLPILDFFFGIVHSYGFAIIALTLVIRLGLYPLSAGQIRNMRKMRITQPLMKERQEEIQKRYKDDPAKQQEEMAKVMKEFGNPLAGCLPLLLQMPILFALFATLRGSPFSDINYTVDLQILPQEQVERIVPQTFSTKPQNIYVDEALHYPIAVFLPGGKMLGVGEKTQLEIQSTEGKAFNQVIPEKNSQILTPTYSVTKGEDRISVNPDGTIEALVPGDATVQVTIPGIAARTGFLFIKALGQVGVTGENGEINWDILGMIVFFGFSIYLNQELSGASGGGAPNAQAQQQQTINKITPILFSGMFLFFPLPAGVLMYIVMANVFQTIQTLILMREPLPENLQKLLDEQQKATQGRESLPFEKKSSKKKEKTS
# Target: N-terminally 3xFLAG-tagged Synechococcus sp. PCC 7002 chlorophyll synthase (ChlG) (Synechococcus sp. PCC 7002)
# Assay: co-IP; anti-FLAG-M2 agarose column with membranes solubilised in 2% β-DDM; FLAG-buffer (25 mM sodium phosphate pH 7.4, 10 mM MgCl2, 50 mM NaCl, 10% glycerol), wash with 0.04% β-DDM, elution with 3xFLAG peptide; eluates read by SDS/PAGE and immunoblot; FLAG-6803 also before and after high light stress
row,Binder,binding
1,B1,binds
2,B2,binds
